The results in this text go back to paper PMC10787542.

One experiment concerns the target T1, Flag-tagged CHRAC1 (UniProt Q9NRG0).
T1 sequence: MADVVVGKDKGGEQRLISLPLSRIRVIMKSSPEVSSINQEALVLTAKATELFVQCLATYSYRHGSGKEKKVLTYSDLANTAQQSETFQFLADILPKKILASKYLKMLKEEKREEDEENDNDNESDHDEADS
The experiment in a line: co-IP; lysates of 293T cells transfected with Flag-tagged CHRAC1 and HA-tagged YAP; agarose beads with Flag antibody or IgG control overnight at 4 °C; washed 4 times with NP40 buffer.

Experiment [1] deals with YAP in MDA-MB-231 and Hela cells (UniProt P46937). The experiment in a line: co-IP; CHRAC1 overexpressed MDA-MB-231 and Hela cells; YAP precipitated, CHRAC1 detected.

These are yes or no findings as the source states them, for the method shown. In cells and extracts the contact can be indirect. Some binding calls cover weakened binding; strength is not graded here. For some assays here: Sequences can lack the tags named with a protein.

As for “HA-tagged YAP (from UniProt P46937 1-504)”, in the experiment with Flag-tagged CHRAC1, the binding entry is on record as “binds”.

B1: CHRAC1 overexpressed in MDA-MB-231 and Hela cells (protein, UniProt Q9NRG0 1-131)
chain: MADVVVGKDKGGEQRLISLPLSRIRVIMKSSPEVSSINQEALVLTAKATELFVQCLATYSYRHGSGKEKKVLTYSDLANTAQQSETFQFLADILPKKILASKYLKMLKEEKREEDEENDNDNESDHDEADS
Consider B1, for which, in experiment [1], the binding result was “binds”.
